The other results are listed elsewhere or left out. Small differences around the control level are noise.
compound: CN[C@@H]1C[C@H]2O[C@@](C)([C@@H]1OC)n1c3ccccc3c3c4c(c5c6ccccc6n2c5c31)C(=O)NC4 [staurosporine]; experiment: log2 fold change of tryptic peptide abundance, ligand vs vehicle (limited proteolysis) (log2 ratio); higher = more trypsin-susceptible (destabilized); conditions: ligand concentration: 20 uM; sample: K562 cleared lysate; digestion: 4 min, 22 C (HT-PELSA RT4min, Orbitrap Astral)

By UniProt entry, the sequences of proteins in these tests, tags left out. Where a name states a change or a piece, a line headed by the entry shows the natural chain unless it says otherwise.
UniProt Q86XE0: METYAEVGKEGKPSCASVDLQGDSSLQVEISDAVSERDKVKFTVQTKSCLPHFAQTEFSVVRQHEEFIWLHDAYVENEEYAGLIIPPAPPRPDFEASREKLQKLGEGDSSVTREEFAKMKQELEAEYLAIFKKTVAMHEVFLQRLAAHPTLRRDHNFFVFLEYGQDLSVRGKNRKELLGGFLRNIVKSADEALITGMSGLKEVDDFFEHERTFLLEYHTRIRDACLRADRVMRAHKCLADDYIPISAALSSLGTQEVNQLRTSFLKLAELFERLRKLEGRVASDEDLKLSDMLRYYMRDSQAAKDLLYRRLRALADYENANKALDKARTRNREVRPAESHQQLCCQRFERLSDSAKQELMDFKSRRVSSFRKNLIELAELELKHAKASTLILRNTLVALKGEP
UniProt Q8N2G8: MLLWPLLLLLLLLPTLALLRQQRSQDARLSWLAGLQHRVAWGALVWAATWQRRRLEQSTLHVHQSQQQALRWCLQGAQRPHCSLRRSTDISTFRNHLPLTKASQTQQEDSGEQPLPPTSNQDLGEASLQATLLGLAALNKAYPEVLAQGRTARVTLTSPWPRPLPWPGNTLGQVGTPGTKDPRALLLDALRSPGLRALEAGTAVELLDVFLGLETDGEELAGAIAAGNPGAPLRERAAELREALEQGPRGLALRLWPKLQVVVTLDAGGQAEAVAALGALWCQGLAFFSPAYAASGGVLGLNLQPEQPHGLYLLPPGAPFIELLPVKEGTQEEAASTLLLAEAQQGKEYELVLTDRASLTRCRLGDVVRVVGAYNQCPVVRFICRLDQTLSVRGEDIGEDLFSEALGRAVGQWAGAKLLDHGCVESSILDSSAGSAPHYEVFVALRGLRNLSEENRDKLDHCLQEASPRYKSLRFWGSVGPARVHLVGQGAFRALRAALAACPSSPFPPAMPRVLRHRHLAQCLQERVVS
UniProt Q8IYA6: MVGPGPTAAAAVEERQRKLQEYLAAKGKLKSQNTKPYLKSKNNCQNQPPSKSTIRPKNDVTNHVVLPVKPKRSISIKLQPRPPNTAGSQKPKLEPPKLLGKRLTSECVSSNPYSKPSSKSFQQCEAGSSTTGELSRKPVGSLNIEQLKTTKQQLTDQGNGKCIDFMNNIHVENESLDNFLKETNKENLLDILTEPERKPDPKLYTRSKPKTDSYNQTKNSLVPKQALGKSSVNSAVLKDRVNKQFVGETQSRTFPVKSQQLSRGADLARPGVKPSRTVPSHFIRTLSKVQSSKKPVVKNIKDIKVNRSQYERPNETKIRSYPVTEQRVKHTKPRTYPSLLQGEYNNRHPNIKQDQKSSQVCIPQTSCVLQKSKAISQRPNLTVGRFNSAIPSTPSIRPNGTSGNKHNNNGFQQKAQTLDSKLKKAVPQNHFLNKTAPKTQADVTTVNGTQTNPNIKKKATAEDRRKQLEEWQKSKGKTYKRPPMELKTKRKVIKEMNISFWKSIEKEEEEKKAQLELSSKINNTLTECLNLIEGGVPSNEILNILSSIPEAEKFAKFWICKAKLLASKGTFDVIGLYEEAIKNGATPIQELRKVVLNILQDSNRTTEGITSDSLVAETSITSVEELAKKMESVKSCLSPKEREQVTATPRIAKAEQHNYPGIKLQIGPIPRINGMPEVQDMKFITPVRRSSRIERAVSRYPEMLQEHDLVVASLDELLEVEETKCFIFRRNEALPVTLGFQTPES
UniProt Q8IY26: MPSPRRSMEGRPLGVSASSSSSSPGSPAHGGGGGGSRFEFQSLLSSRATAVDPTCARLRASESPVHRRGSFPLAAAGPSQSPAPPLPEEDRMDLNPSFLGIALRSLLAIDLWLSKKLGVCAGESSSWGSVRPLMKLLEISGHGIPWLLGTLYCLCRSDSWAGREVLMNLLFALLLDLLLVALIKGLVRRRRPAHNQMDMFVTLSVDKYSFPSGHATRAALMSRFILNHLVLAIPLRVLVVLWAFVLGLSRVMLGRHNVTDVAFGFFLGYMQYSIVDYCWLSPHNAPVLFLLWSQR
UniProt Q8IZ13: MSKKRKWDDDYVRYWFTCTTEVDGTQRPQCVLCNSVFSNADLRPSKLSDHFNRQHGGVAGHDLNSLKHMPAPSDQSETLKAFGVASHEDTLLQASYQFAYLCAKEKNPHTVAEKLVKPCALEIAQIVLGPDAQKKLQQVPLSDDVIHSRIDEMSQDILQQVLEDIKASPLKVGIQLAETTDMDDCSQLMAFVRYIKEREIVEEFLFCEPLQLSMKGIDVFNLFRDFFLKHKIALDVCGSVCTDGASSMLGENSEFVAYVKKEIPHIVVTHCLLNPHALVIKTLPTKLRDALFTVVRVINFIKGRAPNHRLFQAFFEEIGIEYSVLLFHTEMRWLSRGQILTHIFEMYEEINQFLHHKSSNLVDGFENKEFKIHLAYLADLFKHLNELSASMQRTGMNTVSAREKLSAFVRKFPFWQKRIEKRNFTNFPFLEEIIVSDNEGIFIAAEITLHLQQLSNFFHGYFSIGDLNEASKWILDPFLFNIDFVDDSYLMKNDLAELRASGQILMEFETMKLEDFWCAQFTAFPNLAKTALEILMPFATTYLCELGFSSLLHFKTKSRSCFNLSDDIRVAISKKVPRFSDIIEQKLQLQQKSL
UniProt Q86YP4: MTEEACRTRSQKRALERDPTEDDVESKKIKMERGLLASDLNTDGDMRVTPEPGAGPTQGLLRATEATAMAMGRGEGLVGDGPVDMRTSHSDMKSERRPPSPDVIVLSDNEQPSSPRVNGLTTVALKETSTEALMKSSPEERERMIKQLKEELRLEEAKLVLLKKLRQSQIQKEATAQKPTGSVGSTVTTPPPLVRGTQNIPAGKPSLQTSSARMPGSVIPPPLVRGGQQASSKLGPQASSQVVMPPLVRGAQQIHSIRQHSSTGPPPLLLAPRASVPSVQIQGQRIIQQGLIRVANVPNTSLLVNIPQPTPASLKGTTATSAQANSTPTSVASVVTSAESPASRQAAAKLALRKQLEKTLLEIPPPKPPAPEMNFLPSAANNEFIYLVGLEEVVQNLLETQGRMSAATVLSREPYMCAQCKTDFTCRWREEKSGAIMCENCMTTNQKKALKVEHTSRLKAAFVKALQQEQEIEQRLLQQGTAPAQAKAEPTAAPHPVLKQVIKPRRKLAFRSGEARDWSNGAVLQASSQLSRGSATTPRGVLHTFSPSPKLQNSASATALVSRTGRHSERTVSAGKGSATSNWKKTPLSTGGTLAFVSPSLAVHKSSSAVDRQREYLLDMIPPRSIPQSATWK
UniProt Q8IUC6, whole entry: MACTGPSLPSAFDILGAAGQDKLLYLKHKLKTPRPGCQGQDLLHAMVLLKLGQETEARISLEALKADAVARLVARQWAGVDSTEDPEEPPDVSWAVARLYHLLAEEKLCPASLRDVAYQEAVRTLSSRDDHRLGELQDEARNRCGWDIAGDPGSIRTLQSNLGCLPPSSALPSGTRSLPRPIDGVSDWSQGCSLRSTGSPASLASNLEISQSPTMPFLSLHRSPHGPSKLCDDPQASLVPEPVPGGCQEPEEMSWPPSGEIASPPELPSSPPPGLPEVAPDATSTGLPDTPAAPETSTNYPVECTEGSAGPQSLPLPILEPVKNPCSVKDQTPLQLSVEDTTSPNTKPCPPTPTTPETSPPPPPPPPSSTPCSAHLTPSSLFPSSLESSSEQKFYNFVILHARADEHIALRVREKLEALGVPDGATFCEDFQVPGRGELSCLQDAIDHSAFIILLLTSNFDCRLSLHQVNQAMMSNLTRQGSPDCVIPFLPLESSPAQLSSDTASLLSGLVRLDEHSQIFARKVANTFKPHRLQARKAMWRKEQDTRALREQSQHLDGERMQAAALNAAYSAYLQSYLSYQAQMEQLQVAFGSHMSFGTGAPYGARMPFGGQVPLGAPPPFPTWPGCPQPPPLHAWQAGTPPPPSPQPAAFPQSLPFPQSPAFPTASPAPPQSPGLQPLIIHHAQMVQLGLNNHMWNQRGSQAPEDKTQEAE
UniProt Q8IX07: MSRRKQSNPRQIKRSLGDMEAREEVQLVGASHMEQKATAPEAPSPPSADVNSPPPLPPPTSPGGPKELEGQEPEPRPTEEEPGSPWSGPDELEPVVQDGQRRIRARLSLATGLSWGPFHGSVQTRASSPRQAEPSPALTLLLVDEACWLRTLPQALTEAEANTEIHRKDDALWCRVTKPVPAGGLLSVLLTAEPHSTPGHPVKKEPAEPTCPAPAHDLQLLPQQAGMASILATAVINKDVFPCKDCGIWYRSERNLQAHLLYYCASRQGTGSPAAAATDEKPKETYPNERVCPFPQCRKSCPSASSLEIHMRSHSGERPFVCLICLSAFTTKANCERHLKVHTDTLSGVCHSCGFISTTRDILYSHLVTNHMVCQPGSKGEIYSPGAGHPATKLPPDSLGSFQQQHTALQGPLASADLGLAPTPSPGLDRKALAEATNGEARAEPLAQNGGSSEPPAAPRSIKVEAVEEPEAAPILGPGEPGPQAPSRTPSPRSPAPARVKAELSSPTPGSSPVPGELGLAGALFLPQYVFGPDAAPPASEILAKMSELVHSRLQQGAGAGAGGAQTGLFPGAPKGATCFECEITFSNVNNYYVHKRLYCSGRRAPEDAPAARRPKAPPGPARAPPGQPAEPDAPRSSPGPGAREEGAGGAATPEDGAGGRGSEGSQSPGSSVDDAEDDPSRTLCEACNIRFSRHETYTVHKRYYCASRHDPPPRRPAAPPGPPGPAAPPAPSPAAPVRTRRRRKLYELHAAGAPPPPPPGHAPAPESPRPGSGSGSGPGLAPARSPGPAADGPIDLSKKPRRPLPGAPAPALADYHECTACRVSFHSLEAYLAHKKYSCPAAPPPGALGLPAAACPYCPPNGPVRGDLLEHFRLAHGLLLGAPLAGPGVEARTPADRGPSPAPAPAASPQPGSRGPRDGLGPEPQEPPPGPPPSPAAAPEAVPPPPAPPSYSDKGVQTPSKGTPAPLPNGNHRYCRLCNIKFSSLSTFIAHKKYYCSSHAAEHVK
UniProt Q8IY37: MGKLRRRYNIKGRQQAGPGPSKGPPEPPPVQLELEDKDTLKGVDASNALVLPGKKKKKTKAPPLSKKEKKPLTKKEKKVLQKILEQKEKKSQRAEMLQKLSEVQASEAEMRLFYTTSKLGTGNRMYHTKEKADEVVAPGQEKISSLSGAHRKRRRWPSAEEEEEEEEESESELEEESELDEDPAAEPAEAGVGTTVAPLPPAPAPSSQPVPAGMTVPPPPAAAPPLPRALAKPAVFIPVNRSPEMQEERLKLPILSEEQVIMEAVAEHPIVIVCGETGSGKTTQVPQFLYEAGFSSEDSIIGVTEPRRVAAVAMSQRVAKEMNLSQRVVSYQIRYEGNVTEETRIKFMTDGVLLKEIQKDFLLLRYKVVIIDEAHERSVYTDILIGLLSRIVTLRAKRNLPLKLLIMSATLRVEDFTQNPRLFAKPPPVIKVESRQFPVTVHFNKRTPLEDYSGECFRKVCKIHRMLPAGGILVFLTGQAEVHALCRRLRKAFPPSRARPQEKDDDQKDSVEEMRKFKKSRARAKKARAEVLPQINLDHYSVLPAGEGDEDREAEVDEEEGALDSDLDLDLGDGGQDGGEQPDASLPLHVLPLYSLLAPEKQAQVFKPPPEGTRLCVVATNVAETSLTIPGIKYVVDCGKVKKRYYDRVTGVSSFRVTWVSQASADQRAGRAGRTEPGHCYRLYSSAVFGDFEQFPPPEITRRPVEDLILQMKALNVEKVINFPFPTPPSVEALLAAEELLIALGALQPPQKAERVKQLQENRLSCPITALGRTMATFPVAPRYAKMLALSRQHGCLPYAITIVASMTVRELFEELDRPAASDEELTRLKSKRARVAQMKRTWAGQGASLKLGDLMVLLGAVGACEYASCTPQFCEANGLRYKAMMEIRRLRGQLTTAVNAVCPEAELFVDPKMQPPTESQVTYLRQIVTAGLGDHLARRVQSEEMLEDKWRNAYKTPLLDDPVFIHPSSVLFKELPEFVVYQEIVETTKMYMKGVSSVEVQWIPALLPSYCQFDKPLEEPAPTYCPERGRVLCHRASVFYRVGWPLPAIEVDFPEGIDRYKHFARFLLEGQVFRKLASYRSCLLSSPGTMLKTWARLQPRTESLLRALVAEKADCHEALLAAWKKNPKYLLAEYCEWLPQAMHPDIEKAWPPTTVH

Target	log2 fold change
UniProt Q86XE0 (peptide sequence: QELEAEYLAIFKK, peptide start residue: 127)	0.537
GHDC (peptide sequence: STDISTFR, peptide start residue: 87) (UniProt Q8N2G8)	0.135
CKAP2L (peptide sequence: INGMPEVQDMK, peptide start residue: 672) (UniProt Q8IYA6)	0.675
UniProt Q8IY26 (peptide sequence: ATAVDPTCAR, peptide start residue: 48)	-0.452
ZBED8 (peptide sequence: HMPAPSDQSETLK, peptide start residue: 68) (UniProt Q8IZ13)	-0.358
GATAD2A (peptide sequence: EATAQKPTGSVGSTVTTPPPLVR, peptide start residue: 173) (UniProt Q86YP4)	0.454
TICAM1 (peptide sequence: LSLHQVNQAMMSNLTR, peptide start residue: 464) (UniProt Q8IUC6)	0.128
ZFPM1 (peptide sequence: DVFPCKDCGIWYR, peptide start residue: 239) (UniProt Q8IX07)	0.433
DHX37 (peptide sequence: TKAPPLSKK, peptide start residue: 59) (UniProt Q8IY37)	0.314

For convenience, some entries already given.
Target	log2 fold change
CKAP2L (peptide sequence: INGMPEVQDMK, peptide start residue: 672) (UniProt Q8IYA6)	0.675
UniProt Q8IY26 (peptide sequence: ATAVDPTCAR, peptide start residue: 48)	-0.452

From the supplement of paper PMC12819154, “High-throughput peptide-centric local stability assay extends protein–ligand identification to membrane proteins, tissues and bacteria” (Nature Structural & Molecular Biology, 2025)
